Measurements reported in the supplement of paper PMC10849652.
The list shows a part of the results. Residues, ends and D or L forms follow the SMILES beside them. *: point of attachment. Cbz = O=C(OCc1ccccc1)*

Sequences of proteins named here, by UniProt entry; tags and fusion partners are left off. A change or cut given only in a name is not applied to a line headed by its entry.
UniProt Q92504: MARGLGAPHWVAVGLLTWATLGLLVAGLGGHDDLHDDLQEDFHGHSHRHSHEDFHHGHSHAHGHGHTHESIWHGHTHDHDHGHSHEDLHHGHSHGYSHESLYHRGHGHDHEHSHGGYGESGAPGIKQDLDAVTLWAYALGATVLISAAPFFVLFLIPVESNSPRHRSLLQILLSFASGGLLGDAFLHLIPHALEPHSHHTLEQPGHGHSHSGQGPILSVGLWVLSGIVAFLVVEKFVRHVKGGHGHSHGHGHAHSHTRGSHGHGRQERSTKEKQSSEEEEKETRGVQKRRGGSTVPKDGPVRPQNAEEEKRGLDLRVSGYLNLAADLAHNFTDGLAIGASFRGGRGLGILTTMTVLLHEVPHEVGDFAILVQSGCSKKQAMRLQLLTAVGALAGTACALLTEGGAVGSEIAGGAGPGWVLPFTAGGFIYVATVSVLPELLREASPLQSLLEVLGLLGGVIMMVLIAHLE
UniProt Q9HBR0: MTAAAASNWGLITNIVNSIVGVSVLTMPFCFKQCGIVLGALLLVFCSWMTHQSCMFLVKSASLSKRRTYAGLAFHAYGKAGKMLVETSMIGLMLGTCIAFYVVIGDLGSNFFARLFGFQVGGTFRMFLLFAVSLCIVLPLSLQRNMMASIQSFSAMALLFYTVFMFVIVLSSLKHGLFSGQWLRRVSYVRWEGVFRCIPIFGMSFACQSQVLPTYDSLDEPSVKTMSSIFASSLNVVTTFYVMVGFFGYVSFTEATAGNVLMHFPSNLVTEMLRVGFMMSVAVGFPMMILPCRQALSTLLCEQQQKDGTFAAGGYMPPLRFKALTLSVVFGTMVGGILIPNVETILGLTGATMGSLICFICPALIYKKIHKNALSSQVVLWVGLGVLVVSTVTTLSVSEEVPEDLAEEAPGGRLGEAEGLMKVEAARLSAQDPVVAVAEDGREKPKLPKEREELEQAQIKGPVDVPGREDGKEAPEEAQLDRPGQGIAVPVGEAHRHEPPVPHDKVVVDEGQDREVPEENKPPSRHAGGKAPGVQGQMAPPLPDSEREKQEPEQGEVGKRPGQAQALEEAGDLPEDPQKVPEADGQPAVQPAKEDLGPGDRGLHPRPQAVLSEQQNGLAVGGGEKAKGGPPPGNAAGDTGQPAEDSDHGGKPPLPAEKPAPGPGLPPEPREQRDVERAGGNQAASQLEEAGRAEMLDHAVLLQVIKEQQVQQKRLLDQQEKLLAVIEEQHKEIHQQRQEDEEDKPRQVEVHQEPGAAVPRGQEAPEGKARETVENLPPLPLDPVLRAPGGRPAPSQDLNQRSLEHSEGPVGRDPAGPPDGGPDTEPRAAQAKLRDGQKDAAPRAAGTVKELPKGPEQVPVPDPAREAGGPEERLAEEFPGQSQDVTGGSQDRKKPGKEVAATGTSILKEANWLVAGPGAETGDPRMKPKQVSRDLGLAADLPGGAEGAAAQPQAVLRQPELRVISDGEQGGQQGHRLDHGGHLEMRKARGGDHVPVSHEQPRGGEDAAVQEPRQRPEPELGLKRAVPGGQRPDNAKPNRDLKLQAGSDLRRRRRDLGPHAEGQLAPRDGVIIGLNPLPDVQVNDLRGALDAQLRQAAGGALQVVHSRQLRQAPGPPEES
UniProt P49281: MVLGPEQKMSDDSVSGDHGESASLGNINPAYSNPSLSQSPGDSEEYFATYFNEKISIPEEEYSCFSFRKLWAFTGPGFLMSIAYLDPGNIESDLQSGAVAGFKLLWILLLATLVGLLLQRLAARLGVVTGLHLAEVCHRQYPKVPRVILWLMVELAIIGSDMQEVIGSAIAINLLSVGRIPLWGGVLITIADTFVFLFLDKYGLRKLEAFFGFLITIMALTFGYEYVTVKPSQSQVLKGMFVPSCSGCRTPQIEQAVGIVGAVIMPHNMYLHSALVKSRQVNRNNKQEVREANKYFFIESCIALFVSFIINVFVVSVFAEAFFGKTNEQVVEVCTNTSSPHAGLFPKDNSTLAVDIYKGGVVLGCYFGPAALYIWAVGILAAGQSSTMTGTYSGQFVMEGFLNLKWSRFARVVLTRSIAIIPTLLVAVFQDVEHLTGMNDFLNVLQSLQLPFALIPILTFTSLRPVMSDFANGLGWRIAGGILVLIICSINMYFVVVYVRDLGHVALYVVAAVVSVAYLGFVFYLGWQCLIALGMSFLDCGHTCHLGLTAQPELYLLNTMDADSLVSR
UniProt Q8TBP6: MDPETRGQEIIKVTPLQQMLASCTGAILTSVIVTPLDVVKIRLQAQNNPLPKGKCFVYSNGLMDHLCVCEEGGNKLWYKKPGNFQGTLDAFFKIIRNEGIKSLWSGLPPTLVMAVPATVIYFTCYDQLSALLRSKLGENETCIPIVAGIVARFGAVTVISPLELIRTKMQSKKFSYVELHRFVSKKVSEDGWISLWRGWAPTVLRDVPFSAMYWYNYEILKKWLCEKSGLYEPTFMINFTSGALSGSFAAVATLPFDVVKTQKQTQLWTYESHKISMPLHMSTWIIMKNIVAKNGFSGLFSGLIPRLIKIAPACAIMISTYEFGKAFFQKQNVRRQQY
UniProt Q9H936: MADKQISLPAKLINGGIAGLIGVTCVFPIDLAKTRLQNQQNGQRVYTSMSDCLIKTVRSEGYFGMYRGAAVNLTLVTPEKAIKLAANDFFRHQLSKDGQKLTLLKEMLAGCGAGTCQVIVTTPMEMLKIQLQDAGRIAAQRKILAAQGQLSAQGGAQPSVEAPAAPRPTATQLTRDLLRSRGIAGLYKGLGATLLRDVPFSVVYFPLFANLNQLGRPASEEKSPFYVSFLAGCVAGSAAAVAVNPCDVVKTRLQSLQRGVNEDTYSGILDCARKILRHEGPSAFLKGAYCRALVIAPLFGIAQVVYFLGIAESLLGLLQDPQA
UniProt Q15043: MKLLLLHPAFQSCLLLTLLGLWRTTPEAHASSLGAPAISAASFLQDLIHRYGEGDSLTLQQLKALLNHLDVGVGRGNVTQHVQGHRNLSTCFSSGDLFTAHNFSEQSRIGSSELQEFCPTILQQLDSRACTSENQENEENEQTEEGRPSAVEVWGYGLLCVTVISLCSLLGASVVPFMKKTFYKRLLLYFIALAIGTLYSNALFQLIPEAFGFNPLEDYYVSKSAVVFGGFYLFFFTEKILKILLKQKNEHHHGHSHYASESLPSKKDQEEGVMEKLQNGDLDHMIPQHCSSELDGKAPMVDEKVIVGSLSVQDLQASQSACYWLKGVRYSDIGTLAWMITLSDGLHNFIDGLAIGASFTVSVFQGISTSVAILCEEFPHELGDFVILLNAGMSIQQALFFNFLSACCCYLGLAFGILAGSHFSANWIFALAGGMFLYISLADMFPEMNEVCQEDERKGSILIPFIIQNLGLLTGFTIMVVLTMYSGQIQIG
UniProt Q9H2D1: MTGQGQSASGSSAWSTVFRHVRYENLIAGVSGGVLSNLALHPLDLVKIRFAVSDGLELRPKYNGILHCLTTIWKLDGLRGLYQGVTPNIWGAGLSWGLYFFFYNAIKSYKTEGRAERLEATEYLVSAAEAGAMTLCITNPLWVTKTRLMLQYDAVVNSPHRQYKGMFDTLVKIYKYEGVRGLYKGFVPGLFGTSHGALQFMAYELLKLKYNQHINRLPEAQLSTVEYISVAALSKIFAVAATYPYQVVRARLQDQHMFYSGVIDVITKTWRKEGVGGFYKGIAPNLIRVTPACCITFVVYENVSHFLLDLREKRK
UniProt Q01650: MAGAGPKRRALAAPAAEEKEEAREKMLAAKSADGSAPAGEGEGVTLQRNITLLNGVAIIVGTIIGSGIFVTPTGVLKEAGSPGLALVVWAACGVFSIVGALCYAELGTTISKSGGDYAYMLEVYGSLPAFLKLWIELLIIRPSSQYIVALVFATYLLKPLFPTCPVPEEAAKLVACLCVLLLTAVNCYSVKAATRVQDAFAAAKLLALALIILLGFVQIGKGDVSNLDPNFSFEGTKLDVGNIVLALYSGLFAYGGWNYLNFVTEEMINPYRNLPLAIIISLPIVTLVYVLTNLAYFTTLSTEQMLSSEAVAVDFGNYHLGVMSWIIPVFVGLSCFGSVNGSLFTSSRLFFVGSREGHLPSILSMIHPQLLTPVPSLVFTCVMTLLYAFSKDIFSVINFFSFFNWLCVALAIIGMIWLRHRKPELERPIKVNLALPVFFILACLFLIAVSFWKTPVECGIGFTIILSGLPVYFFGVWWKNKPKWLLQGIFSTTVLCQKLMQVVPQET
UniProt P31641: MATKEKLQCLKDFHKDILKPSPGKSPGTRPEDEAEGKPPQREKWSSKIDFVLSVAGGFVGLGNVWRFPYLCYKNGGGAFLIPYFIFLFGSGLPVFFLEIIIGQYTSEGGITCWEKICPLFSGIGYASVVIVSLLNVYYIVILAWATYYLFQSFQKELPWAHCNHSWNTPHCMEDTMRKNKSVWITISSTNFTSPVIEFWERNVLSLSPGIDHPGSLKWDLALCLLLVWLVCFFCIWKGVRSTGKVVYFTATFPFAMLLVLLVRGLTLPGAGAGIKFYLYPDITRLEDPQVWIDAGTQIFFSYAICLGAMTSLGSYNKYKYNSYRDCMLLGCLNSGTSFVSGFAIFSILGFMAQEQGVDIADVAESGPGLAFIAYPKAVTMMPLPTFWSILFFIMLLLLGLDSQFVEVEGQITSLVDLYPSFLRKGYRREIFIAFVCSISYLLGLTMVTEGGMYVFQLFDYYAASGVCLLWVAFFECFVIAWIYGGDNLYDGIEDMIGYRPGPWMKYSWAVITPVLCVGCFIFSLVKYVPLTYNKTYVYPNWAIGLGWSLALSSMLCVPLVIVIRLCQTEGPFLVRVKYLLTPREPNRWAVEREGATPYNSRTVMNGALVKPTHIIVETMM
UniProt Q9UJS0: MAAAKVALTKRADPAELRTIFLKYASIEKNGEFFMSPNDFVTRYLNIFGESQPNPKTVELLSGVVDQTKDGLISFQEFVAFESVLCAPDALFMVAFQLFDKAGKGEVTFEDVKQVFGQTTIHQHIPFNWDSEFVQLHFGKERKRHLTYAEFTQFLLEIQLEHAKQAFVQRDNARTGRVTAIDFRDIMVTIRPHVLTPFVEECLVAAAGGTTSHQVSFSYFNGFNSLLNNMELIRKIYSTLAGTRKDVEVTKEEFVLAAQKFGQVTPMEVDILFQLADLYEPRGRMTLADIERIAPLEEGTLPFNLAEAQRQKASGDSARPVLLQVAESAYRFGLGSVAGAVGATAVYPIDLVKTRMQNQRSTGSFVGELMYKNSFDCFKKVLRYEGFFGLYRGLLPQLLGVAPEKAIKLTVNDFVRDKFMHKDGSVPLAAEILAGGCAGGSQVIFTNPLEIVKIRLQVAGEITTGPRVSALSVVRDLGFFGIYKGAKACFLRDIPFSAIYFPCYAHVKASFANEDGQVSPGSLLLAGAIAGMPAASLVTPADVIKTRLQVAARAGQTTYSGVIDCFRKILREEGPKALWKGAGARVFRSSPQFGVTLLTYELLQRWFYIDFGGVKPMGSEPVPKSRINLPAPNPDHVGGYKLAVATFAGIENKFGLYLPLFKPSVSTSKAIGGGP
UniProt O43826: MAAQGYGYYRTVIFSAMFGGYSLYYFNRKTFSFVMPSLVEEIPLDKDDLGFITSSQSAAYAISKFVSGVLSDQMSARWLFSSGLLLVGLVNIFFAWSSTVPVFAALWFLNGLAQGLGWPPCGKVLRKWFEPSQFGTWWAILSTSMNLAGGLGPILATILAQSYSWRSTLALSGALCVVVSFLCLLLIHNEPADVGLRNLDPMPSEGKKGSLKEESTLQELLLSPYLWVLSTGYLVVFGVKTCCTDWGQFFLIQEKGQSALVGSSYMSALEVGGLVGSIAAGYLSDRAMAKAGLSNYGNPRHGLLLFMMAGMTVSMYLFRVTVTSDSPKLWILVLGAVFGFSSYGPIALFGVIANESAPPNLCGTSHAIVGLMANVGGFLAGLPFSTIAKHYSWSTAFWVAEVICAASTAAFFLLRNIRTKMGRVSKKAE
UniProt Q6PCB7: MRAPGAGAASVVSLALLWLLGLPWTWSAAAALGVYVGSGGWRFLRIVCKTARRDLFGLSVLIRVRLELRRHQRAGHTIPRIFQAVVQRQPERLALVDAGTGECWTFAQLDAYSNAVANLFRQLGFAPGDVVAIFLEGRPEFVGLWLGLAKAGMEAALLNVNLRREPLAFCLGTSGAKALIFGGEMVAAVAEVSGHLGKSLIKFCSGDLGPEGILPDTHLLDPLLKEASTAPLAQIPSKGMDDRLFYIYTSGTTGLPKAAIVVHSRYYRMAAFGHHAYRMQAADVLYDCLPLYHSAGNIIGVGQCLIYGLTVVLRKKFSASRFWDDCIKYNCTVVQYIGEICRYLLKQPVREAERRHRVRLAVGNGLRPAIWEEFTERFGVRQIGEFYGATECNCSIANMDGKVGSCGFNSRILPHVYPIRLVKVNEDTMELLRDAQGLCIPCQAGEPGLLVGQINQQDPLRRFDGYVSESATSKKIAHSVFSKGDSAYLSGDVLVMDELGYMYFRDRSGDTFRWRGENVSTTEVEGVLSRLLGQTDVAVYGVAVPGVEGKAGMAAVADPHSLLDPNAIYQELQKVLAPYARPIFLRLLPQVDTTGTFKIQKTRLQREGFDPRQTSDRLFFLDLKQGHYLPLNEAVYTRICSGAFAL

Key:
Test in all cases: log2 fold change, soluble protein after heating vs DMSO (PISA); higher = thermal stabilisation; K562 cells, 10 uM, 30 min; active = over 0.2 and 3.5 SD of the protein, either way, in both replicates (recomputed)
[1] = compound: C#Cc1cccc(Nc2ncnc3cc(OCCOC)c(OCCOC)cc23)c1 [erlotinib]
Summary of the method: (§1)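 K562 cells (2×10^6 cells/mL) were treated with 10 μM compound for 30 min, and aliquots were heated for 3 min over 48°C-58°C. Pooled aliquots were extracted in PBS with 0.5% NP-40 at 4°C, and the supernatant after 21,000xg for 90 min was measured by TMTpro 16plex LC-MS/MS with channel sums equalised. Reported thermal stability, relative to control samples and from duplicates, is a log2 fold change.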

[2] = compound: C/C(=N\NC(=O)C1=CC(=CC=C1)S(=O)(=O)N2CCOCC2)/C3=C(C=CC(=C3)Cl)O
Summary of the method: as §1

[3] = compound: C1=CC(=C(C=C1Cl)C2=NC3=NC=CN=C3C(=N2)NC4=CC=NC=C4)F
Summary of the method: as §1

[4] = compound: C1=CC(=CC=C1C2=NC3=C(N2)C=C(C=C3)C(=O)N)OC4=CC=C(C=C4)Cl
Summary of the method: as §1

[5] = compound: C1=CC2=C(C=CC(=C2)/C=C\3/C(=O)NC(=NCC4=CC=CS4)S3)N=C1
Summary of the method: as §1

[6] = compound: C1=CC2=NC=CN=C2C=C1/C=C/3\C(=O)NC(=O)S3
Summary of the method: as §1

[7] = compound: C1=CC=C(C=C1)C2=NC(=C(N2)C3=CC=NC=C3)C4=CC(=C(C=C4)Cl)O
Summary of the method: as §1

[8] = compound: C1=CC=C2C(=C1)C3=NNC4=CC=CC(=C43)C2=O
Summary of the method: as §1

[9] = compound: C1CCN(C1)C(=O)NC2=CC=CC(=C2)NC3=NC=C(C(=N3)NCCC4=CN=CN4)Br
Summary of the method: as §1

[10] = compound: C1CN(CCC1(CC2=CC=C(C=C2)Cl)N)C3=NC=NC4=C3C=CN4
Summary of the method: as §1

[11] = compound: C1COCCN1CCN2C3=CC=CC=C3N=C2NC(=O)C4=CC(=CC=C4)[N+](=O)[O-] [IRAK-1-4 Inhibitor I]
Summary of the method: as §1

[12] = compound: C=CC(=O)N1CCC[C@@H](n2nc(-c3ccc(Oc4ccccc4)cc3)c3c(N)ncnc32)C1 [ibrutinib]
Summary of the method: as §1

[13] = compound: CC(=O)c1cnc2ccc(-c3cc(Cl)c(O)c(Cl)c3)nc2c1N[C@H]1CC[C@H](CN(C)C)CC1
Summary of the method: as §1

[14] = compound: CC(C)(C)Cn1c(N)nc2ccc(-c3[nH]c(C(C)(C)C)nc3-c3ccc(F)cc3)nc21 [ralimetinib]
Summary of the method: as §1

[15] = compound: CC(C)(O)CC(=O)NCCn1ccc2ncnc(Nc3ccc(Oc4cccc(C(F)(F)F)c4)c(Cl)c3)c21
Summary of the method: as §1

[16] = compound: CC(C)C1=C2N=C(C=C(N2N=C1)NCC3=CC=CC=C3)NCCCCCCN
Summary of the method: as §1

[17] = compound: CC(C)C[C@@H](C=O)NC(=O)[C@H](CC(C)C)NC(=O)[C@H](CC(C)C)NC(=O)OCc1ccccc1
Summary of the method: as §1

[18] = compound: CC(C)N(C[C@H]1O[C@@H](n2cnc3c(N)ncnc32)[C@H](O)[C@@H]1O)[C@H]1C[C@@H](CCc2nc3cc(C(C)(C)C)ccc3[nH]2)C1 [pinometostat]
Summary of the method: as §1

[19] = compound: CC1=C(C(CC(=O)N1)C2=CC=C(C=C2)C(F)(F)F)C(=O)NC3=C(C=C4C(=C3)C=NN4)F
Summary of the method: as §1

[20] = compound: CC1=C(C2=C(C=C1)C(=O)C3=CC=CC=C3N2CCCN)C
Summary of the method: as §1

Measured: log2 fold change

SLC39A7 (UniProt Q92504)
inactive: [1] -0.032 | [2] -0.051 | [3] -0.025 | [4] 0.012 | [5] 0.045 | [6] 0.032 | [7] -0.011 | [8] 0.013 | [9] 0 | [10] 0.021 | [11] -0.193 | [12] 0.015 | [13] -0.015 | [14] -0.018 | [15] -0.023 | [16] 0.002 | [17] -0.051 | [18] -0.164 | [19] -0.013 | [20] -0.01

SLC38A10 (UniProt Q9HBR0)
inactive: [1] 0.059 | [2] -0.146 | [3] -0.023 | [4] -0.097 | [5] 0.025 | [6] 0.005 | [7] 0.003 | [8] -0.018 | [9] -0.052 | [10] 0.038 | [11] 0.011 | [12] 0.055 | [13] -0.012 | [14] -0.037 | [15] -0.036 | [16] 0.166 | [17] 0.04 | [18] -0.026 | [19] 0.025 | [20] 0.013

SLC11A2 isoform 3 (UniProt P49281)
inactive: [1] -0.011 | [2] -0.11 | [3] 0.072 | [4] 0 | [5] -0.019 | [6] 0.077 | [7] 0.238 | [8] -0.025 | [9] -0.039 | [10] 0.048 | [11] 0.011 | [12] 0.017 | [13] -0.102 | [14] -0.004 | [15] 0.045 | [16] -0.172 | [17] 0.11 | [18] 0.037 | [19] 0.008 | [20] 0.051

SLC30A1 (UniProt Q9Y6M5)
inactive: [1] 0.005 | [2] -0.036 | [3] 0.073 | [4] 0.01 | [5] -0.059 | [6] -0.011 | [7] 0.066 | [8] -0.071 | [9] -0.054 | [10] 0.101 | [11] -0.012 | [12] 0.054 | [13] 0.01 | [14] -0.022 | [15] 0.022 | [16] 0.17 | [17] -0.059 | [18] -0.087 | [19] 0.006 | [20] 0.013

SLC25A40 (UniProt Q8TBP6)
inactive: [1] -0.053 | [2] 0.022 | [3] 0.048 | [4] -0.029 | [5] -0.015 | [6] 0.043 | [7] -0.007 | [8] -0.005 | [9] -0.069 | [10] 0.029 | [11] 0.006 | [12] -0.009 | [13] -0.003 | [14] -0.049 | [15] -0.021 | [16] 0.05 | [17] 0.009 | [18] -0.014 | [19] -0.004 | [20] 0.056

SLC25A22 (UniProt Q9H936)
inactive: [1] 0.024 | [2] 0.01 | [3] 0.024 | [4] -0.023 | [5] 0.012 | [6] 0.047 | [7] 0 | [8] -0.003 | [9] 0.033 | [10] 0.004 | [11] 0.022 | [12] -0.002 | [13] 0.015 | [14] -0.039 | [15] 0.002 | [16] 0.037 | [17] -0.028 | [18] -0.047 | [19] 0.015 | [20] -0.02

SLC39A14 (UniProt Q15043)
inactive: [1] 0.019 | [2] -0.047 | [3] 0.013 | [4] 0.029 | [5] 0.034 | [6] 0.068 | [7] -0.041 | [8] -0.069 | [9] 0.004 | [10] 0.051 | [11] 0.023 | [12] 0.013 | [13] -0.019 | [14] -0.093 | [15] 0.034 | [16] 0.026 | [17] 0.018 | [18] -0.032 | [19] -0.009 | [20] -0.058

SLC25A32 (UniProt Q9H2D1)
inactive: [1] 0.021 | [2] 0.021 | [3] -0.056 | [4] 0.022 | [5] -0.017 | [6] 0.082 | [7] -0.031 | [8] 0.002 | [9] 0.009 | [10] 0.071 | [11] -0.006 | [12] 0.02 | [13] 0.005 | [14] -0.073 | [15] 0.072 | [16] 0.03 | [17] -0.049 | [18] -0.035 | [19] -0.021 | [20] 0.014

SLC38A7 (UniProt Q9NVC3)
inactive: [1] 0.009 | [2] -0.003 | [3] 0.071 | [4] 0.058 | [5] 0.024 | [6] 0.088 | [8] 0.006 | [9] 0.011 | [10] 0.097 | [11] 0.035 | [12] 0.073 | [13] 0.092 | [14] 0.205 | [15] -0.085 | [17] -0.024 | [18] 0.033 | [20] 0.007
active: [7] 0.441 | [16] -0.751

SLC7A5 (UniProt Q01650)
inactive: [1] 0.057 | [2] -0.033 | [3] 0.012 | [4] 0.01 | [5] -0.016 | [6] 0.01 | [7] -0.066 | [8] -0.008 | [9] -0.054 | [10] 0.187 | [11] -0.008 | [12] 0.004 | [13] -0.06 | [14] -0.148 | [15] -0.047 | [16] 0.171 | [17] -0.013 | [18] -0.087 | [19] -0.103 | [20] 0.014

SLC6A6 (UniProt P31641)
inactive: [1] 0.001 | [2] 0.013 | [3] 0.123 | [4] -0.005 | [5] 0.003 | [6] 0.055 | [7] 0.007 | [8] -0.054 | [9] 0.087 | [10] 0.083 | [11] -0.025 | [12] 0.036 | [13] -0.045 | [14] -0.186 | [15] -0.033 | [16] 0.107 | [17] 0.101 | [18] -0.071 | [20] -0.181

SLC25A13 isoform 2 (UniProt Q9UJS0)
inactive: [1] 0.023 | [2] 0.002 | [3] 0.019 | [4] 0.001 | [5] -0.024 | [6] -0.001 | [7] 0.015 | [8] 0.003 | [9] 0.016 | [10] 0.04 | [11] 0.032 | [12] 0.009 | [13] -0.012 | [14] -0.056 | [15] 0.004 | [16] 0.034 | [17] -0.003 | [18] -0.027 | [19] -0.009 | [20] -0.014

SLC37A4 isoform 2 (UniProt O43826)
inactive: [1] -0.033 | [2] -0.026 | [3] 0.04 | [4] 0.025 | [5] 0.007 | [6] 0.042 | [7] -0.041 | [8] -0.032 | [9] 0.078 | [10] 0.053 | [11] 0.016 | [12] -0.036 | [13] 0.03 | [14] -0.085 | [15] -0.024 | [16] 0.136 | [17] 0.06 | [18] -0.009 | [19] -0.029 | [20] -0.009

SLC25A37 (UniProt Q9NYZ2)
inactive: [1] 0.01 | [2] 0.001 | [3] -0.089 | [4] 0.025 | [5] -0.049 | [6] -0.082 | [7] -0.023 | [8] 0.018 | [9] 0.056 | [10] 0.052 | [11] 0.006 | [12] 0.21 | [13] -0.001 | [14] 0.036 | [15] 0.035 | [16] 0.07 | [17] -0.029 | [18] -0.001 | [19] -0.002 | [20] 0.036

SLC41A3 isoform 9 (UniProt Q96GZ6)
inactive: [1] 0.031 | [2] -0.41 | [3] 0.108 | [4] 0.016 | [5] 0.231 | [6] -0.227 | [8] -0.106 | [9] 0.06 | [10] 0.19 | [11] -0.103 | [12] -0.103 | [13] -0.092 | [15] -0.034 | [16] 0 | [18] 0.184 | [19] 0.128 | [20] 0.045

SLC27A1 (UniProt Q6PCB7)
active: [9] -0.411
inactive: [1] -0.003 | [2] -0.053 | [3] 0.055 | [4] -0.008 | [5] 0.061 | [6] 0 | [7] 0.016 | [8] 0.012 | [10] -0.064 | [11] 0.052 | [12] 0.064 | [13] -0.05 | [14] 0.001 | [15] 0.117 | [16] -0.035 | [17] -0.04 | [18] -0.034 | [20] 0.04
